# Laboratory results as given in US20250276066A1, “METHODS, COMPOSITIONS AND COMPOUNDS FOR TREATING AGE-RELATED DISEASES AND CONDITIONS” (GERO PTE. LTD., priority 2021, published 2025).
# At least one structure is not confirmed: it was looked up by name or label, or the drawing left a doubt.
# What was measured:
# [1] = tested on: 3D human skin equivalents; ex vivo skins; experiment: Example 31: 3D skin equivalents and ex vivo skin biopsies (skin score, gene expression, DNA methylation age); assay type: cell-based
# [2] = tested on: genetically heterogeneous mice; details: mouse, in vivo; cited from earlier work
smiles,measurement,setting,value
CO[C@H]1C[C@@H]2CC[C@@H](C)[C@@](O)(O2)C(=O)C(=O)N2CCCC[C@H]2C(=O)O[C@H]([C@H](C)C[C@@H]2CC[C@@H](O)[C@H](OC)C2)CC(=O)[C@H](C)/C=C(\C)[C@@H](O)[C@@H](OC)C(=O)[C@H](C)C[C@H](C)/C=C/C=C/C=C/1C [rapamycin],unbiased skin score (morphology),"[1]; 3D skin equivalents, 48 yr old donors",decrease
same,DNA methylation age (Skin-Specific DNA methylation algorithm),[1]; ex vivo skin biopsies,did not generate any significant alterations
same,lifespan of genetically heterogeneous mice,[2],extends the lifespan
